Laboratory results from patent US20120214778A1 (priority 2009, published 2012).

Experiment: CONFIRM phase III study: health-related quality of life (FACT-B, TOI)
Type: in vivo, postmenopausal women
Details: HRQoL subgroup

C[C@]12CC[C@@H]3c4ccc(O)cc4C[C@@H](CCCCCCCCC[S+]([O-])CCCC(F)(F)C(F)(F)F)[C@H]3[C@@H]1CC[C@@H]2O (stereo partly drawn) [fulvestrant, 7alpha-[9-(4,4,5,5,5-pentafluoropentylsulfinyl)-nonyl]estra-1,3,5, (10)-triene-3, 17beta-diol]
mean TOI score (on-treatment HRQoL) (250 mg, 73 patients): approximately 60 out of 92 | mean TOI score (on-treatment HRQoL) (500 mg, 72 patients): approximately 60 out of 92
